# Source: paper PMC4822050, “Hemi-methylated DNA opens a closed conformation of UHRF1 to facilitate its histone recognition” (Nature Communications, 2016)
# Tests used:
# [1] = tested on: H3 peptide (1–17) (H3K9me0); assay: ITC, H3 (H3K9me0) peptide (1-17) titrated into UHRF1 proteins; type: binding; conditions: H3 in syringe; for N: ITC stoichiometry; for ΔH / ΔS: ITC
# Method: (§1) For competition ITC experiments: the indicated proteins were pre-incubated with competitive peptide, protein or hm-DNA (at 1:2 molar ratio if not specified) for 10 min followed by ITC measurements as described above. Proteins, DNA and peptides were prepared within ITC buffer containing 10 mM HEPES, pH 8.0, 100 mM NaCl. The data were fitted by software Origin 7.0. All ITC results were summarized in Supplementary Table 2 and raw data were shown in Supplementary Fig. 9.
# [2] = tested on: PHD (residues 307–366) of UHRF1; assay: ITC, PHD titrated into UHRF1 domains; type: binding, human; conditions: PHD in syringe
# Method: as §1
# H3K9me3 peptide (1–17) = assay: ITC, H3K9me3 peptide (1-17) titrated into UHRF1 proteins; type: binding
# Method: as §1
# hm-DNA (12 bp) = assay: ITC, hm-DNA titrated into UHRF1 domains; type: binding; conditions: hm-DNA in syringe
# Method: as §1
# [3] = ITC, H3K9me3 in syringe, named protein in cell
Substance,N [1],ΔH [1],ΔS [1],N ([2]; ITC stoichiometry),ΔH ([2]; ITC),ΔS ([2]; ITC),"N of H3K9me3 binding to the TTD in the presence of the named protein (H3K9me3 peptide (1–17); competition ITC, 1:2)","ΔH of H3K9me3 binding to the TTD in the presence of the named protein (H3K9me3 peptide (1–17); competition ITC, 1:2)","ΔS of H3K9me3 binding to the TTD in the presence of the named protein (H3K9me3 peptide (1–17); competition ITC, 1:2)",N (hm-DNA (12 bp); ITC stoichiometry),ΔH (hm-DNA (12 bp); ITC),ΔS (hm-DNA (12 bp); ITC),"N (H3K9me3 peptide (1–17); ITC stoichiometry, H3K9me3 in syringe, named protein in cell)",ΔH (H3K9me3 peptide (1–17); [3]),ΔS (H3K9me3 peptide (1–17); [3])
"PHD: plant homeodomain of human UHRF1 (residues 307–366) (DDVNRLCRVCACHLCGGRQDPDKQLMCDECDMAFHIYCLDPPLSSVPSEDEWYCPECRND; UniProt Q96T88 307-366, looked up, fragment)",0.935±0.00653,-6.377 ± 0.06292 kcal/mol,6.08 cal/mol/deg,,,,,,,,,,,,
SRA: SET-and-RING-associated domain of human UHRF1 (residues 414–617),,,,0.823±0.16,-3.506 ± 0.9792 kcal/mol,9.34 cal/mol/deg,1.29±0.00646,-7.415 ± 0.05315 kcal/mol,2.25 cal/mol/deg,1.25±0.0495,-2.648 ± 0.2213 kcal/mol,12.0 cal/mol/deg,,,
UHRF1: recombinant human UHRF1 (residues 1–793); GFP-tagged in the cell assay,1.18±0.063,-7.147 ± 0.738 kcal/mol,-3.41 cal/mol/deg,,,,,,,,,,1.05±0.0196,-4.646E4±1233 cal/mol,-57.3 cal/mol/deg
